# Data as given in PMC4809424.
# Chains of the proteins cited; added tags and fusions are not shown.
# UniProt P14635: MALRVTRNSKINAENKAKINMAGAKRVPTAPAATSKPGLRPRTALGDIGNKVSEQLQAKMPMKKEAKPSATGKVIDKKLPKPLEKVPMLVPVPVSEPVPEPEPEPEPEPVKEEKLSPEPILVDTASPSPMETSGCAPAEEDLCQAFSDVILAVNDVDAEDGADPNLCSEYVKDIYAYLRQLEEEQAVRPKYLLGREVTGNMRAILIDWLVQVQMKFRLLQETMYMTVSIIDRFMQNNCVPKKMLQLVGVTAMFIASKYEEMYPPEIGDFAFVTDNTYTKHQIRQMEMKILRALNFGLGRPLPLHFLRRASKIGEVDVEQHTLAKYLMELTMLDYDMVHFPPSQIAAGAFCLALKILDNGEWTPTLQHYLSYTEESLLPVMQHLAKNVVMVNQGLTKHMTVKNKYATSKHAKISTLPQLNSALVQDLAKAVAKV
# UniProt Q00526: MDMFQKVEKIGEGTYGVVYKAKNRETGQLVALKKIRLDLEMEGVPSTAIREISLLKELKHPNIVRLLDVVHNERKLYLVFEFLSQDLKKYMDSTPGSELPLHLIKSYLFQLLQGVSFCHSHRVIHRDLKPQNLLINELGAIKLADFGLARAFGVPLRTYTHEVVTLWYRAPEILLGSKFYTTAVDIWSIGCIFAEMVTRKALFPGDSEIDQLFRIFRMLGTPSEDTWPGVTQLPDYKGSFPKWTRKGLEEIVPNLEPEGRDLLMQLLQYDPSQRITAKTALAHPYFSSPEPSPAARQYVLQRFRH
# Biological target: Flag-tagged CCNB1 (UniProt P14635)
# Assay: affinity purification with mass spectrometry; HCT116 cells transfected with Flag-tagged CCNB1; RIPA lysis buffer; anti-Flag antibody-conjugated agarose; eluted with 100 uM Flag peptide; trypsin digest, mass spectrometry
substance,measurement,value
CDK3 (from UniProt Q00526 1-305) (enzyme),binding,binds

# Results are given in words; binding and its absence hold for the method and conditions named. In cells and extracts the contact can be indirect. These calls come from enrichment with a bait or labelling near it, and not all partners need be listed.
